According to publication PMC10011449:
Results are given in words; binding and its absence hold for the method and conditions named. Binding seen in cells or lysates may run through a third protein. Binding calls can cover weak binding; strength is not graded here.

The chains behind the UniProt entries cited, without tags or fusion partners. Where a name states a change or a piece, a line headed by the entry shows the natural chain unless it says otherwise.
UniProt P19634: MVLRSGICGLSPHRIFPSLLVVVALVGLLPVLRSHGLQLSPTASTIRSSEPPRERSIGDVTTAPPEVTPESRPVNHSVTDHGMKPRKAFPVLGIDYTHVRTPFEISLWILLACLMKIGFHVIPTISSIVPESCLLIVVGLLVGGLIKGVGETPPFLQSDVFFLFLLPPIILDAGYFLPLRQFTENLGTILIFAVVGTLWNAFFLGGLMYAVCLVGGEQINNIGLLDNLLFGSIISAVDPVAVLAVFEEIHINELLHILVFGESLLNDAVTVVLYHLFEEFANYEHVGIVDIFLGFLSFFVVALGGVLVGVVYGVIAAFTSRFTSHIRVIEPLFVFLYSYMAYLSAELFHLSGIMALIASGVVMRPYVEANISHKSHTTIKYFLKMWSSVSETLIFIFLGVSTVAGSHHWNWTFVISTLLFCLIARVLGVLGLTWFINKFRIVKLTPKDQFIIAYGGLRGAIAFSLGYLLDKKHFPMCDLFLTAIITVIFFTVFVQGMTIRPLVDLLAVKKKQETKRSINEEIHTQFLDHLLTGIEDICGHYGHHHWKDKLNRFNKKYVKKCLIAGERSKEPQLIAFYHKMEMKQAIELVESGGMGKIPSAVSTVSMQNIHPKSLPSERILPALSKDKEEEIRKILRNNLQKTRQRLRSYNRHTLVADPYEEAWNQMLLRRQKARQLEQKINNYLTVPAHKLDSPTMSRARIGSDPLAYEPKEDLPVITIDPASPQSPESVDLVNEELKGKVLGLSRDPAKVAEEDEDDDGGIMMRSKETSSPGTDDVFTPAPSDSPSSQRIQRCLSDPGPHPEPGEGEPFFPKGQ
UniProt P31977: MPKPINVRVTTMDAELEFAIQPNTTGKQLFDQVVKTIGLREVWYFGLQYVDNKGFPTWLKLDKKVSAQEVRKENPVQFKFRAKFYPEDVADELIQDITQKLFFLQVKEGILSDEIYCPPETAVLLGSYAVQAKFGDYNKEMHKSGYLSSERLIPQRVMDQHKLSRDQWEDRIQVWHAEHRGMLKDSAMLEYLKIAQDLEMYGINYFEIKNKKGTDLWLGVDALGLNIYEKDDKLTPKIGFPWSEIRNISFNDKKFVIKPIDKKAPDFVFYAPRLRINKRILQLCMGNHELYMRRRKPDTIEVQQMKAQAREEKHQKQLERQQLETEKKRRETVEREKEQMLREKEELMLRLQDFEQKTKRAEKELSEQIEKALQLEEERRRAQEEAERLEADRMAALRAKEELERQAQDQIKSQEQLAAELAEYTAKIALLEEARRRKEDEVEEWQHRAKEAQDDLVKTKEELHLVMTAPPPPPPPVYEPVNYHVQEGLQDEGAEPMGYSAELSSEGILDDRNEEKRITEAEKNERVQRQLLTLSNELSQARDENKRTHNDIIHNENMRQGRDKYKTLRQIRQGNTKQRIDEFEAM

Biological target: HA-tagged human NHE1 with mutated ezrin binding site (AdMut) (human) (UniProt P19634)
Assay: co-IP; anti-HA immunoprecipitation (HA-tagged NHE1 as bait) from lysates of rat PASMCs infected with AdNHE1 or AdMut; blots for p-ezrin and SMA; IgG as control

Substance: phosphorylated ezrin (p-ezrin) (from UniProt P31977 1-586)
- binding: binds weakly
